These are yes or no findings as the source states them, for the method shown. Binding seen in cells or lysates may run through a third protein. Here binding means that the protein was enriched with, or labelled near, the bait; the list need not be complete. A no says only that the protein was not detected with the bait. Sequences can lack the tags named with a protein.
Target: T1, full-length PC2 fused with FLAG-BirA* (PC2-BF / FB-PC2 BioID baits, datasets merged) (human) (UniProt Q13563)
T1 sequence: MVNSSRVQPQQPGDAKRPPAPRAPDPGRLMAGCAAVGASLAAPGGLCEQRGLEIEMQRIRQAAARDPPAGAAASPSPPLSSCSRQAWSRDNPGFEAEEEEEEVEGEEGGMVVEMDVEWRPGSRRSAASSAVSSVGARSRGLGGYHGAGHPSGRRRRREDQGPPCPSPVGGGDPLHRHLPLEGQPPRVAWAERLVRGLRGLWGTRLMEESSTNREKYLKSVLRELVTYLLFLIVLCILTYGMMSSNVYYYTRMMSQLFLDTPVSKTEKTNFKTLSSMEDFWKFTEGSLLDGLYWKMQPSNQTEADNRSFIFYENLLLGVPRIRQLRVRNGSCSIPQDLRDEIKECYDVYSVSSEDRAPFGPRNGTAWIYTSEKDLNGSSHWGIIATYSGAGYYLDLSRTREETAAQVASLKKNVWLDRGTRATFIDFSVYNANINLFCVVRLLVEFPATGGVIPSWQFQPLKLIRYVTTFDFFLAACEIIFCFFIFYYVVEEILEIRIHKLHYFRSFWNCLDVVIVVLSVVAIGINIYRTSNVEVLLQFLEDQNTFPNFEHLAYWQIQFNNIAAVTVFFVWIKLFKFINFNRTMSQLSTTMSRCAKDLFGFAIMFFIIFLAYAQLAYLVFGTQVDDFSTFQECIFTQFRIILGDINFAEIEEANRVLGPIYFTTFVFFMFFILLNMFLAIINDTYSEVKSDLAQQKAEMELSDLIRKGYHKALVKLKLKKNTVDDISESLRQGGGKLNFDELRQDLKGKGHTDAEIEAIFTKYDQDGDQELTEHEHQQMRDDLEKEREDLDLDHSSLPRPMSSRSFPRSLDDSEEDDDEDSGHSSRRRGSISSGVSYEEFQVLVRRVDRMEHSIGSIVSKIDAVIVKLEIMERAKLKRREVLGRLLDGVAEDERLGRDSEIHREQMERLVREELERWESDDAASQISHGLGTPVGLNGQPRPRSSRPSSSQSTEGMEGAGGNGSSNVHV
Experiment: proximity labelling; BioID in Flp-In HEK293 T-REx stable lines: bait induced with 1 ug/ml tetracycline and 50 uM biotin for 24 h, cycling cells or cells kept 48 h in 0.5% serum (ciliation-induced); streptavidin capture, LC-MS/MS; SAINTexpress, BFDR <=1% against FlagBirA* controls, PC1-BF also filtered against CD16.7-BF

binding: no binding
B1: FNIP1 (protein, UniProt Q8TF40 1-1166)
chain: MAPTLFQKLFSKRTGLGAPGRDARDPDCGFSWPLPEFDPSQIRLIVYQDCERRGRNVLFDSSVKRRNEDISVSKLGSDAQVKVFGKCCQLKPGGDSSSSLDSSVTSSSDIKDQCLKYQGSRCSSDANMLGEMMFGSVAMSYKGSTLKIHQIRSPPQLMLSKVFTARTGSSICGSLNTLQDSLEFINQDNNTLKADNNTVINGLLGNIGLSQFCSPRRAFSEQGPLRLIRSASFFAVHSNPMDMPGRELNEDRDSGIARSASLSSLLITPFPSPNSSLTRSCASSYQRRWRRSQTTSLENGVFPRWSIEESFNLSDESCGPNPGIVRKKKIAIGVIFSLSKDEDENNKFNEFFFSHFPLFESHMNKLKSAIEQAMKMSRRSADASQRSLAYNRIVDALNEFRTTICNLYTMPRIGEPVWLTMMSGTPEKNHLCYRFMKEFTFLMENASKNQFLPALITAVLTNHLAWVPTVMPNGQPPIKIFLEKHSSQSVDMLAKTHPYNPLWAQLGDLYGAIGSPVRLARTVVVGKRQDMVQRLLYFLTYFIRCSELQETHLLENGEDEAIVMPGTVITTTLEKGEIEESEYVLVTMHRNKSSLLFKESEEIRTPNCNCKYCSHPLLGQNVENISQQEREDIQNSSKELLGISDECQMISPSDCQEENAVDVKQYRDKLRTCFDAKLETVVCTGSVPVDKCALSESGLESTEETWQSEKLLDSDSHTGKAMRSTGMVVEKKPPDKIVPASFSCEAAQTKVTFLIGDSMSPDSDTELRSQAVVDQITRHHTKPLKEERGAIDQHQETKQTTKDQSGESDTQNMVSEEPCELPCWNHSDPESMSLFDEYFNDDSIETRTIDDVPFKTSTDSKDHCCMLEFSKILCTKNNKQNNEFCKCIETVPQDSCKTCFPQQDQRDTLSILVPHGDKESSDKKIAVGTEWDIPRNESSDSALGDSESEDTGHDMTRQVSSYYGGEQEDWAEEDEIPFPGSKLIEVSAVQPNIANFGRSLLGGYCSSYVPDFVLQGIGSDERFRQCLMSDLSHAVQHPVLDEPIAEAVCIIADMDKWTVQVASSQRRVTDNKLGKEVLVSSLVSNLLHSTLQLYKHNLSPNFCVMHLEDRLQELYFKSKMLSEYLRGQMRVHVKELGVVLGIESSDLPLLAAVASTHSPYVAQILL

From PMC12663635
